The assay has as its target T1, FtsW (E. coli) (UniProt P0ABG4).
T1 sequence: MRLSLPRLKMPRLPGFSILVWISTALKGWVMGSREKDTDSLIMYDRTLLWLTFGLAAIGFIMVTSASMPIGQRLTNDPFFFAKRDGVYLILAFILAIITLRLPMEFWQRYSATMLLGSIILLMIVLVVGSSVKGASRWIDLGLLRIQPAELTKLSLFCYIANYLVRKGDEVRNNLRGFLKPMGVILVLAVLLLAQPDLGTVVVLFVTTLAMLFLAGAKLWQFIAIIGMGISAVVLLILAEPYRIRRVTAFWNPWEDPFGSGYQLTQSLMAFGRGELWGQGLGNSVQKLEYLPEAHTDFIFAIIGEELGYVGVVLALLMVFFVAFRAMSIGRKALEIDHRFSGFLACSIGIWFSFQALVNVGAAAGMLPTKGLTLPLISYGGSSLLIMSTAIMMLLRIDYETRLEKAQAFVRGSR
Put plainly: co-purification; FtsW-PBP3 complex purified as previously described (ref. 13); stock in 50 mM Hepes pH 7.5, 0.3 M NaCl, 10% glycerol, 0.05% DDM.

No constants are given. Whether binding was seen depends on the method and setting. Some binding calls cover weakened binding; strength is not graded here.

B1: PBP3 (protein, UniProt P0AD68 1-577)
chain: MKAAAKTQKPKRQEEHANFISWRFALLCGCILLALAFLLGRVAWLQVISPDMLVKEGDMRSLRVQQVSTSRGMITDRSGRPLAVSVPVKAIWADPKEVHDAGGISVGDRWKALANALNIPLDQLSARINANPKGRFIYLARQVNPDMADYIKKLKLPGIHLREESRRYYPSGEVTAHLIGFTNVDSQGIEGVEKSFDKWLTGQPGERIVRKDRYGRVIEDISSTDSQAAHNLALSIDERLQALVYRELNNAVAFNKAESGSAVLVDVNTGEVLAMANSPSYNPNNLSGTPKEAMRNRTITDVFEPGSTVKPMVVMTALQRGVVRENSVLNTIPYRINGHEIKDVARYSELTLTGVLQKSSNVGVSKLALAMPSSALVDTYSRFGLGKATNLGLVGERSGLYPQKQRWSDIERATFSFGYGLMVTPLQLARVYATIGSYGIYRPLSITKVDPPVPGERVFPESIVRTVVHMMESVALPGGGGVKAAIKGYRIAIKTGTAKKVGPDGRYINKYIAYTAGVAPASQPRFALVVVINDPQAGKYYGGAVSAPVFGAIMGGVLRTMNIEPDALTTGDKNEFV
As to B1, the binding entry was “binds”.
